This note sets out measurements from article doi:10.1101/2021.06.28.450115.

Sequences of proteins named here, by UniProt entry; tags and fusion partners are left off. Residues count along the entry.
UniProt P38646, residues 47-679: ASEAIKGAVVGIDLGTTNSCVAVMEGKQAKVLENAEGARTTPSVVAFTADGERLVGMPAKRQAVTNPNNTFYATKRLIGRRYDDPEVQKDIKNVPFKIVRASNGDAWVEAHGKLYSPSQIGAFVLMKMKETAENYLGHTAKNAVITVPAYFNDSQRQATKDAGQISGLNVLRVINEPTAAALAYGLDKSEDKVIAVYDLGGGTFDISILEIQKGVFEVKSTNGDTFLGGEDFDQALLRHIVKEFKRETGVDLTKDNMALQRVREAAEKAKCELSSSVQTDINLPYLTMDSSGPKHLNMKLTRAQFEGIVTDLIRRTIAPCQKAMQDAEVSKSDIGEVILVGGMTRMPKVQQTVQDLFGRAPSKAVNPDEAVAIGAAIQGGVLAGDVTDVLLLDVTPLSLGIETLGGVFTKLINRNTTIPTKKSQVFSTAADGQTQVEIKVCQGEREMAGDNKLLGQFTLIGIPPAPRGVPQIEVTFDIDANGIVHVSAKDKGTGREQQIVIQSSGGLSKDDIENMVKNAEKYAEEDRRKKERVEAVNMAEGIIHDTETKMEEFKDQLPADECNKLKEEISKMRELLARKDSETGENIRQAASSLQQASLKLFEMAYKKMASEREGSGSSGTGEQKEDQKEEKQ

Results are given in words; binding and its absence hold for the method and conditions named. Binding seen in cells or lysates may run through a third protein. Some entries that bind do so weakly or less than the wild type.

The test has as its target T1, DAB2IP (endogenous, SW48) (human (endogenous in SW48)) (UniProt Q5VWQ8).
T1 sequence: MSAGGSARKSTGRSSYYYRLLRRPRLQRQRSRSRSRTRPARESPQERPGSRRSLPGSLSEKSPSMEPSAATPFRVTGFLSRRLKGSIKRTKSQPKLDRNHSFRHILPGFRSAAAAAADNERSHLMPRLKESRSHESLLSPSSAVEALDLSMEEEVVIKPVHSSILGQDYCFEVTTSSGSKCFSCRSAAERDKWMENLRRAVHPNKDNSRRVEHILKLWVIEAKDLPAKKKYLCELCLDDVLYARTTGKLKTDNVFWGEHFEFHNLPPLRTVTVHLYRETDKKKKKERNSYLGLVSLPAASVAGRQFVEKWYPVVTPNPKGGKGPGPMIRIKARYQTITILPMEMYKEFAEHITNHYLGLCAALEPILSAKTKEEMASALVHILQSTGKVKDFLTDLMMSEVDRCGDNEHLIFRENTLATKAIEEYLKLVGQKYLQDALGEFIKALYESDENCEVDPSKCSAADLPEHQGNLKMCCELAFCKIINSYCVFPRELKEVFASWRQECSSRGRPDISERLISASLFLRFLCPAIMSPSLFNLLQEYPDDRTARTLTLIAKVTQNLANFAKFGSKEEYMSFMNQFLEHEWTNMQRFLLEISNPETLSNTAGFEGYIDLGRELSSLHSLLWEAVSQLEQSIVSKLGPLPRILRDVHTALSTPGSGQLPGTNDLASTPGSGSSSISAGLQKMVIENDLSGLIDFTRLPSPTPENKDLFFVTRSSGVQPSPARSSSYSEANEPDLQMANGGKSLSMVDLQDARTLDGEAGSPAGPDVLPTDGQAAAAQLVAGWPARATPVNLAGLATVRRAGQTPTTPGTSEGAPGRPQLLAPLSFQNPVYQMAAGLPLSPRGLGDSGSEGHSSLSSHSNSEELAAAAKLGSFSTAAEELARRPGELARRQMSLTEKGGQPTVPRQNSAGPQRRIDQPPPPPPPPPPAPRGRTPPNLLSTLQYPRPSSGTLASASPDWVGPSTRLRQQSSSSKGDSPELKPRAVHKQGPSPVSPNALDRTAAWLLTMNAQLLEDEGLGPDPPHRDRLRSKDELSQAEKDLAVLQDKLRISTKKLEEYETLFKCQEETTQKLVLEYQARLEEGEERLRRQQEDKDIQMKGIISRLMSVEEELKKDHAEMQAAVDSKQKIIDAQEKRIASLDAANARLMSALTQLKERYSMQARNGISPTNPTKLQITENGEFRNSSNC
The experiment in a line: co-IP.

As to “GRP75 (endogenous, SW48) (from UniProt P38646 47-679)”, the binding result is listed as “binds”. For the substance “p53 (endogenous, wild type, SW48) (from UniProt P04637 1-393)”, the binding result is listed as “no binding”.
